Experimental findings from patent US20220073631A1 are described below.

For this test, the target named is extracellular domain of marmoset IL-4Rα (Gly 24-His 232) with C-terminus his-tag (marmoset). The test is described as follows: SPR, Biacore T200, by the methods of Example 2. (Surface plasmon resonance follows binding to a sensor surface in real time, without labels.)

No constants are given. Whether binding was seen depends on the method and setting. A result given as binding can be weak or reduced; the word gives no strength.

B1: QX005N (PD2-31) (antibody, V domains shown)
VH: EVQLVESGGGLVQPGGSLRLSCAASGIDLRTNSMSWVRQAPGKGLEWVGIIGSSGYMDYASWAKGRFTISRDNSKNTLYLQMNSLRAEDTAVYYCARHGDSSSFALWGQGTLVTVSS
VL: DIQMTQSPSSLSASVGDRVTITCRASESVYKNNRLSWYQQKPGKAPKLLIYEASKVASGVPSRFSGSGSGTDFTLTISSLQPEDFATYYCAGAYRGNIYPFGQGTKVEIK
B1: the binding entry was “binds”.
